{"source": "PubChem BioAssay AID1224830, NIAID | 2016", "aim": "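Regulators of TLR4 signalling towards TNF-alpha in macrophage-like cells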 (primary screen)", "cell system": "human THP-1 monocytic leukaemia cells, TNF dual-luciferase reporter clone, PMA-differentiated to macrophage-like cells", "reagent": "siRNA pool against human genes, 50 nM", "timing": "LPS for 4 h, given about 3 days after siRNA transfection", "conditions": "bacterial LPS (TLR4 ligand), 10 ng/ml", "read-out": "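Ratio of firefly to renilla light, scaled to the plate median and expressed as a robust z-score per replicate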", "scale": "TNF reporter robust z-score: higher = stronger TNF reporter response to LPS", "rule for the call": "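Each well counts as active if its z-score is over 2.8 or under -1.5; controls are left without a call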", "note": "The deposit covers about 18,000 reagents; this is a part drawn at random. Over the whole deposit, about 2,900 (16%) are marked active. 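Calls are made per well; low scores hint the gene aids the LPS response, high scores that it dampens it.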 Unmarked entries are inactive. Repeated entries: four replicate wells of each siRNA pool."}
{"target gene": "SRI (sorcin)", "TNF reporter robust z-score": 0.05}
{"target gene": "SRI (sorcin)", "TNF reporter robust z-score": 1.54}
{"target gene": "SRI (sorcin)", "TNF reporter robust z-score": 2.2}
{"target gene": "SRI (sorcin)", "TNF reporter robust z-score": 0.72}
{"target gene": "SLC33A2", "TNF reporter robust z-score": 0.09}
{"target gene": "SLC33A2", "TNF reporter robust z-score": -0.23}
{"target gene": "SLC33A2", "TNF reporter robust z-score": 0.35}
{"target gene": "SLC33A2", "TNF reporter robust z-score": -1.36}
{"target gene": "TEKT3 (tektin 3)", "TNF reporter robust z-score": 0.47}
{"target gene": "TEKT3 (tektin 3)", "TNF reporter robust z-score": 0.32}
{"target gene": "TEKT3 (tektin 3)", "TNF reporter robust z-score": -0.28}
{"target gene": "TEKT3 (tektin 3)", "TNF reporter robust z-score": 0.51}
{"target gene": "SVOPL (SVOP like)", "TNF reporter robust z-score": 0.2}
{"target gene": "SVOPL (SVOP like)", "TNF reporter robust z-score": 0.67}
{"target gene": "SVOPL (SVOP like)", "TNF reporter robust z-score": 0.05}
{"target gene": "SVOPL (SVOP like)", "TNF reporter robust z-score": -0.92}
{"target gene": "NDST2 (N-deacetylase and N-sulfotransferase 2)", "TNF reporter robust z-score": -0.4}
{"target gene": "NDST2 (N-deacetylase and N-sulfotransferase 2)", "TNF reporter robust z-score": -0.12}
{"target gene": "NDST2 (N-deacetylase and N-sulfotransferase 2)", "TNF reporter robust z-score": 0.12}
{"target gene": "NDST2 (N-deacetylase and N-sulfotransferase 2)", "TNF reporter robust z-score": -0.2}
{"target gene": "KIF20B (kinesin family member 20B)", "TNF reporter robust z-score": 2.1}
{"target gene": "KIF20B (kinesin family member 20B)", "TNF reporter robust z-score": 2.26}
{"target gene": "KIF20B (kinesin family member 20B)", "TNF reporter robust z-score": 0.72}
{"target gene": "KIF20B (kinesin family member 20B)", "TNF reporter robust z-score": 0.24}
{"target gene": "PSG8 (pregnancy specific beta-1-glycoprotein 8)", "TNF reporter robust z-score": -0.84}
{"target gene": "PSG8 (pregnancy specific beta-1-glycoprotein 8)", "TNF reporter robust z-score": -0.23}
{"target gene": "PSG8 (pregnancy specific beta-1-glycoprotein 8)", "TNF reporter robust z-score": -0.33}
{"target gene": "PSG8 (pregnancy specific beta-1-glycoprotein 8)", "TNF reporter robust z-score": -0.52}
{"target gene": "SLC17A9", "TNF reporter robust z-score": 0.18}
{"target gene": "SLC17A9", "TNF reporter robust z-score": 2.28}
{"target gene": "SLC17A9", "TNF reporter robust z-score": 0.52}
{"target gene": "SLC17A9", "TNF reporter robust z-score": 1.7}
